Measured values: patent US12054483B2, “Small molecule inhibitors of DYRK/CLK and uses thereof” (Arizona Board of Regents on Behalf of the University of …, priority 2018, dated 2024)
Structures were worked out from names or drawings and are uncertain.

Molecular target: DYRK1A (Homo sapiens, UniProt Q13627)
Experiment: Affinity testing of compounds with DYRK1A (KD)
Type: binding
Details: read-out: KD (DYRK1A); DYRK1A affinity key classes

Kd: 0.0005 to 0.1 µM
SMILES: Cc1nc2ccc(-c3ccnc(N)c3)nc2n1-c1ccc2c(c1)CCN2
